Laboratory results reported in US20110021746A1 (published 2011).
Positions count from the first letter of the chain named. Results are given in words; binding and its absence hold for the method and conditions named. Some entries that bind do so weakly or less than the wild type. Blank lines part the entries; values can stand above or below the binder they belong to.

Amino acid sequences for entries named in this document (tags omitted). Residues count along the entry.
UniProt P35968, residues 20-764: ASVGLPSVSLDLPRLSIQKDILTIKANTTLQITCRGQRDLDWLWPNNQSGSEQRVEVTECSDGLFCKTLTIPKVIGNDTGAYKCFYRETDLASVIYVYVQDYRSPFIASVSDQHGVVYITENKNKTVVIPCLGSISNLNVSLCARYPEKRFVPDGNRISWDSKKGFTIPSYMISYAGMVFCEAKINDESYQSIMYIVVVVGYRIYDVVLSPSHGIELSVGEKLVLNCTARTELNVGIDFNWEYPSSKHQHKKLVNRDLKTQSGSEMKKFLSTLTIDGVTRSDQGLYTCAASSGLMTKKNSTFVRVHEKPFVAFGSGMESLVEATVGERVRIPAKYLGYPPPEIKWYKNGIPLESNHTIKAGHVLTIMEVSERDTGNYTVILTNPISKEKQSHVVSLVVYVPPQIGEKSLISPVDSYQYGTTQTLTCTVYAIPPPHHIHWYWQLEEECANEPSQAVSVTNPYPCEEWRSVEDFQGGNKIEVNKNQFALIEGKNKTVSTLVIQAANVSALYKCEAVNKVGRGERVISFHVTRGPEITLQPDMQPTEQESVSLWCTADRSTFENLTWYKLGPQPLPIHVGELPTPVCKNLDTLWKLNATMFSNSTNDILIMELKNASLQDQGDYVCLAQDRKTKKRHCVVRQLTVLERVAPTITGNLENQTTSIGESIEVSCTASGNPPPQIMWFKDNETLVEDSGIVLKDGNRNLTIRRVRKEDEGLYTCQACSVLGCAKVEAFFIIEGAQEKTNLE
UniProt P30530, residues 26-449: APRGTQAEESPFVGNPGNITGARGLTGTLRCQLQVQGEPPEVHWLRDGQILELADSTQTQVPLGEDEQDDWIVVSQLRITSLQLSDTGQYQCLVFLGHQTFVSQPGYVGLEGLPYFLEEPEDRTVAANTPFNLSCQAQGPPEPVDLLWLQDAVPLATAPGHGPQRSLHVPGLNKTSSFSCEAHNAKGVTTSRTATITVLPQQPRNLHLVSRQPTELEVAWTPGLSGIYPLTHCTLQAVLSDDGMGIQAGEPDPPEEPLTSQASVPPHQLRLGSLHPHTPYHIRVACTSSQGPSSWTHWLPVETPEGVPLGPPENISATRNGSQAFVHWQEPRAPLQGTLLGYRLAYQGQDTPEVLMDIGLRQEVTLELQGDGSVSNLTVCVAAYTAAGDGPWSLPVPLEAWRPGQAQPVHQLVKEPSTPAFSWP

Experiments:
VEGFR2 = VEGFR2 (UniProt P35968); assay: phage display selection
Axl = Axl (UniProt P30530); assay: phage display selection

- binding (VEGFR2): binds
B3: SEQ ID NO 258 (designed binder)
chain: NVSPPRRARVTDATETTITIRWQLPIKASSEVPGFQVDAVPANGQTPIQRTINADVSTYTITGLQPGTDYKIYLYTLNDNARSSPVVIDAST

- binding (VEGFR2): binds
B8: SEQ ID NO 259 (designed binder)
chain: B3 chain with Q23K, L24V, K27Q, A28R, S29D, E31I, V56T

- binding (VEGFR2): binds
B11: SEQ ID NO 261 (designed binder)
chain: B3 chain with Q23K, A28P, S29N, E31T, V32I, G34S, N53H

- binding (VEGFR2): binds
B13: SEQ ID NO 256 (designed binder)
chain: B3 chain with Q23K, K27G, A28R, S29G, V32I

- binding (VEGFR2): binds
B15: SEQ ID NO 257 (designed binder)
chain: B3 chain with Q23A, P25G, I26V, K27D, E31V, V32I

- binding (VEGFR2): binds
B19: SEQ ID NO 255 (designed binder)
chain: NVSPPRRARVTDATETTITIRWRTPIDAGGGQVPSFQVDAVPANGQTPIQRTINADVSTYTITGLQPGTDYKIYLYTLNDNARSSPVVIDAST

- binding (VEGFR2): binds
B20: SEQ ID NO 265 (designed binder)
chain: B19 chain with R23E, I26E, D27Y, A28N, G31T, Q32A, V33I, S35G, V57I

- binding (Axl): binds
B22: SEQ ID NO 495 (designed binder)
chain: NVSPPRRARVTDATETTITIRWALPRSAFDRFQVDAVPANGQTPIQRTITTSIRTYTITGLQPGTDYKIYLYTLNDNARSSPVVIDAST

- binding (VEGFR2): binds
B24: SEQ ID NO 263 (designed binder)
chain: NVSPPRRARVTDATETTITIRWTVPVHRDSEIISFQVDAVPANGQTPIQRTINATTNVYTITGLQPGTDYKIYLYTLNDNARSSPVVIDAST

- binding (Axl): binds
B25: SEQ ID NO 498 (designed binder)
chain: NVSPPRRARVTDATETTITIRWAAGFQVDAVPANGQTPIQRTIKRNINSYTITGLKPGTDYKIYLYTLNDNARSSPVVIDAST

- binding (Axl): binds
B29: SEQ ID NO 489 (designed binder)
chain: NVSPPRRARVTDATETTITIRWKVPGFQVDAVPANGQTPIQRTIARGVRVYTITGLQPGTDYKIYLYTLNDNARSSPVVIDAST

- binding (Axl): binds
B30: SEQ ID NO 491 (designed binder)
chain: B29 chain with K23G, P25T, A45K, G47N, V48A, V50S

- binding (Axl): binds
B31: SEQ ID NO 494 (designed binder)
chain: B29 chain with K23G, V24Q, P25T, A45K, G47A, V48A, R49T, V50S

- binding (Axl): binds
B32: SEQ ID NO 490 (designed binder)
chain: B29 chain with K23G, V24E, P25L, A45K, G47A, V48A, R49N, V50T

- binding (Axl): binds
B33: SEQ ID NO 496 (designed binder)
chain: B29 chain with P25D, V32F, A45H, G47A, R49N, S75N, S76N

- binding (Axl): binds
B34: SEQ ID NO 493 (designed binder)
chain: B29 chain with K23T, V24G, P25Q, G26R, A45K, R46T, G47T, V48I, R49H, V50G

- binding (Axl): binds
B35: SEQ ID NO 492 (designed binder)
chain: B29 chain with K23R, P25A, G47N, V48T, R49H, V50S

- binding (VEGFR2): binds
B38: SEQ ID NO 264 (designed binder)
chain: NVSPPRRARVTDATETTITIRWERAPGEVDGFQVDAVPANGQTPIQRTINADTNIYTITGLQPGTDYKIYLYTLNDNARSSPVVIDAST

- binding (Axl): binds
B41: SEQ ID NO 488 (designed binder)
chain: NVSPPRRARVTDATETTITIRWAQVLRFQVDAVPANGQTPIQRTIKRDVHSYTITGLQPGTDYKIYLYTLNDNARSSPVVIDAST

- binding (VEGFR2): binds
B44: SEQ ID NO 260 (designed binder)
chain: B3 chain with L24V, P25G, I26V, K27D, S29D, E31P, V32I, G34S, N53H, V56I

- binding (VEGFR2): binds
B45: SEQ ID NO 262 (designed binder)
chain: B3 chain with L24Q, K27R, S30G, V32L, V56T, S57N, T58I

The next lines start with the binder.

B1: SEQ ID NO 231 (designed binder)
chain: B3 chain with Q23T, P25G, K27S, A28G, S29N, E31I, V56T, S57T
- binding (VEGFR2): binds

B2: SEQ ID NO 250 (designed binder)
chain: B3 chain with Q23E, E31I, V32I, G34S, N53Q
- binding (VEGFR2): binds

B4: SEQ ID NO 241 (designed binder)
chain: B3 chain with I26G, K27D, S29N, S30G
- binding (VEGFR2): binds

B5: SEQ ID NO 252 (designed binder)
chain: B3 chain with Q23T, P25G, I26D, K27Q, A28V, E31A, V32I
- binding (VEGFR2): binds

B6: SEQ ID NO 232 (designed binder)
chain: B3 chain with Q23T, L24V, I26V, K27S, S29N, S30G, E31Q, V32I, G34S
- binding (VEGFR2): binds

B7: SEQ ID NO 243 (designed binder)
chain: B3 chain with Q23K, K27E, S29D, S30G, E31I, G34S, N53Q
- binding (VEGFR2): binds

B9: SEQ ID NO 239 (designed binder)
chain: B3 chain with Q23E, K27N, A28R, S29N, E31T, V32I, G34S, V56I
- binding (VEGFR2): binds

B10: SEQ ID NO 234 (designed binder)
chain: NVSPPRRARVTDATETTITIRWTQGVSRNGTIPGFQVDAVPANGQTPIQRTINADTSTYTITGLQPGTDYKIYLYTLNDNARSSPVVIDAST
- binding (VEGFR2): binds

B12: SEQ ID NO 236 (designed binder)
chain: B10 chain with T23E, Q24A, S27E, R28A, N29D, T31E, I32V, G34S
- binding (VEGFR2): binds

B14: 1637102_VGR2H03 (designed binder)
chain: B3 chain with Q23T, I26V, K27Q, S29N, S30G, E31I, N53H
- binding (VEGFR2): binds

B16: SEQ ID NO 244 (designed binder)
chain: B19 chain with T24A, I26E, D27A, A28N, G31S, Q32A, S35G, V57T
- binding (VEGFR2): binds

B17: SEQ ID NO 253 (designed binder)
chain: B19 chain with I26A, A28N, Q32G, V33I, A43V, V57I
- binding (VEGFR2): binds

B18: SEQ ID NO 251 (designed binder)
chain: B19 chain with R23N, I26E, D27N, A28D, Q32T, S35G
- binding (VEGFR2): binds

B21: SEQ ID NO 249 (designed binder)
chain: B19 chain with R23G, T24A, I26E, A28D, Q32T, S35G, V57T
- binding (VEGFR2): binds

B23: SEQ ID NO 245 (designed binder)
chain: B24 chain with T23K, D29N, E31T, I32L
- binding (VEGFR2): binds

B26: SEQ ID NO 242 (designed binder)
chain: NVSPPRRARVTDATETTITIRWTLAGPIAGFQVDAVPANGQTPIQRTIHADTSTYTITGLQPGTDYKIYLYTLNDNARSSPVVIDAST
- binding (VEGFR2): binds

B27: SEQ ID NO 247 (designed binder)
chain: B26 chain with L24R, G26P, P27S, I28Q, A29D, H49N, S53T, T54V
- binding (VEGFR2): binds

B28: SEQ ID NO 233 (designed binder)
chain: NVSPPRRARVTDATETTITISWRTKTETITGFQVDAVPANGQTPIQRTIETGARGYTITGLQPGTDYKIYLYTLNEDGGSAYTELTGVIDAST
- binding (VEGFR2): binds

B36: SEQ ID NO 237 (designed binder)
chain: B38 chain with E23T, P26G, G27S, I55V
- binding (VEGFR2): binds

B37: SEQ ID NO 254 (designed binder)
chain: B38 chain with P26A, V29F, D30A, N50H
- binding (VEGFR2): binds

B39: SEQ ID NO 246 (designed binder)
chain: B38 chain with P26Q, N50H, I55V
- binding (VEGFR2): binds

B40: SEQ ID NO 240 (designed binder)
chain: B38 chain with G27S, N50H
- binding (VEGFR2): binds

B42: SEQ ID NO 235 (designed binder)
chain: B3 chain with Q23K, L24Q, A28P, S29D, E31V, V32I, G34S, V56I
- binding (VEGFR2): binds

B43: SEQ ID NO 238 (designed binder)
chain: B10 chain with T23Q, G25P, S27E, R28A, N29D, T31I, G34S, N53H, T56I
- binding (VEGFR2): binds
